Data reported in PMC12087091.
Results are given in words; binding and its absence hold for the method and conditions named. In cells and extracts the contact can be indirect. Some results given as binding are weak or reduced against the parent protein; the word gives no strength.

The chains behind the UniProt entries cited, without tags or fusion partners. Where a name states a change or a piece, a line headed by the entry shows the natural chain unless it says otherwise.
UniProt P17174: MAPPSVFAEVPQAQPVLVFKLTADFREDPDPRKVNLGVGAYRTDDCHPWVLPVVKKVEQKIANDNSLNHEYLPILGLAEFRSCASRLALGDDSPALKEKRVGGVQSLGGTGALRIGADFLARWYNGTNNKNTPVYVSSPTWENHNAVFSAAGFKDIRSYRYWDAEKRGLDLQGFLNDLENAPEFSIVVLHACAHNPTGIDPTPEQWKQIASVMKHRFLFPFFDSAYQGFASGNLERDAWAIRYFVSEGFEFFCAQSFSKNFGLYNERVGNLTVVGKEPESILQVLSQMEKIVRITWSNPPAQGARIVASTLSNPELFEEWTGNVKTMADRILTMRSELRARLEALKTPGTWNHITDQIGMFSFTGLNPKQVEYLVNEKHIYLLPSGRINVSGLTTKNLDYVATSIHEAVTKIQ
UniProt P45974: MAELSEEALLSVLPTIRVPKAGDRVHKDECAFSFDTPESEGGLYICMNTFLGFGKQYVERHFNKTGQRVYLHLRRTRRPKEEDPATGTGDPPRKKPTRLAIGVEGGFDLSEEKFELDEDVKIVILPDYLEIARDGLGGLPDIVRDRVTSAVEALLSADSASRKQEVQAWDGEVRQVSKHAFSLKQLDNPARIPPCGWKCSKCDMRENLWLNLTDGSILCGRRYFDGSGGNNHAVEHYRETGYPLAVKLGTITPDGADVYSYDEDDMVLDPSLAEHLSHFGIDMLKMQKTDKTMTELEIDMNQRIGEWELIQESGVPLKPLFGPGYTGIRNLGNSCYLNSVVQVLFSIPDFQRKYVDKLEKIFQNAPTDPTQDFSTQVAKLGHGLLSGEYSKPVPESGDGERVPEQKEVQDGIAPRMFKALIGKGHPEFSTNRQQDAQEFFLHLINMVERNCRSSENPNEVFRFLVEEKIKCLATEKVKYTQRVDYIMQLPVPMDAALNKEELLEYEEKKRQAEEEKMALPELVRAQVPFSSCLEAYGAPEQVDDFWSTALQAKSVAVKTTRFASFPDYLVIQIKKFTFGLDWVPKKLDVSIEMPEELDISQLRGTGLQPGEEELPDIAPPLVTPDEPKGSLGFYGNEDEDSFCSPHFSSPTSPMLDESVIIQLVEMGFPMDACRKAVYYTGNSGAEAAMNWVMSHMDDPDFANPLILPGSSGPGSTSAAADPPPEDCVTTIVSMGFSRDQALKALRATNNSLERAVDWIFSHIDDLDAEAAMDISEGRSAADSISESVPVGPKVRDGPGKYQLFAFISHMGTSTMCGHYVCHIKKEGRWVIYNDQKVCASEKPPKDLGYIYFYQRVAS

What was measured:
[1] = target: T1, Annexin A1 (ANXA1), endogenous (human (endogenous in HUCCT1 and HCCC9810)) (UniProt P04083); test: co-IP; endogenous proteins in HUCCT1 and HCCC9810 lysates, antibody-conjugated magnetic beads, Western blot; for USP5 with GOT1: IP with anti-USP5 or anti-GOT1, cells with sh-control or sh-ANXA1, MG132 10 uM 6 h
T1 sequence: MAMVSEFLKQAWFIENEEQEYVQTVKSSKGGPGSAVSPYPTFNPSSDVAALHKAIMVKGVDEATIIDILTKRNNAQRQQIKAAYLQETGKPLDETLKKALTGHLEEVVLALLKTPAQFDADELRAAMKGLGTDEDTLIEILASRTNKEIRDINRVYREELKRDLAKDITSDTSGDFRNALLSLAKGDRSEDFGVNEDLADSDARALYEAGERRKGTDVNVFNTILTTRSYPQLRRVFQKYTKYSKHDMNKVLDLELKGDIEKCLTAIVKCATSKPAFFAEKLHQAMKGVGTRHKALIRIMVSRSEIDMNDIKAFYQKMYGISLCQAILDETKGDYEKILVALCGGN

[2] = target: T1, Annexin A1 (ANXA1), endogenous (human (endogenous in HUCCT1 and HCCC9810)); test: proximity ligation; NaveniFlex Cell MR PLA on fixed, permeabilised HUCCT1 and HCCC9810 cells, pairs of primary antibodies (ANXA1-USP5, ANXA1-GOT1, USP5-GOT1), Cy3 signal by confocal microscopy; for USP5-GOT1 vector against ANXA1 overexpression
[3] = target: Glutamic-oxaloacetic transaminase 1 (GOT1), endogenous (human (endogenous in HUCCT1 and HCCC9810)) (UniProt P17174); test: co-IP; endogenous proteins in HUCCT1 and HCCC9810 lysates, antibody-conjugated magnetic beads, Western blot; for USP5 with GOT1: IP with anti-USP5 or anti-GOT1, cells with sh-control or sh-ANXA1, MG132 10 uM 6 h
[4] = target: Glutamic-oxaloacetic transaminase 1 (GOT1), endogenous (human (endogenous in HUCCT1 and HCCC9810)) (UniProt P17174); test: proximity ligation; NaveniFlex Cell MR PLA on fixed, permeabilised HUCCT1 and HCCC9810 cells, pairs of primary antibodies (ANXA1-USP5, ANXA1-GOT1, USP5-GOT1), Cy3 signal by confocal microscopy; for USP5-GOT1 vector against ANXA1 overexpression
[5] = target: Flag-GOT1 (human) (UniProt P17174); test: co-IP; Myc-USP5-C335A co-transfected with Flag-GOT1 in HUCCT1 cells
[6] = target: T2, ANXA1, exogenous in 293T cells (UniProt P04083); test: co-IP; exogenous proteins expressed in 293T (HEK293T) cells, lysates, Western blot
T2 sequence: T1 sequence

Row | binding [1] | binding [2] | binding [6] | Substance | also measured
1 | binds | binds |  | Glutamic-oxaloacetic transaminase 1 (GOT1), endogenous (from UniProt P17174 1-413) (enzyme) | 
2 | binds | binds |  | Ubiquitin-specific protease 5 (USP5), endogenous (from UniProt P45974 1-858) (enzyme) | binding [3]: binds; binding [4]: binds
3 |  |  |  | Myc-USP5-C335A (from UniProt P45974 1-858) (enzyme) | binding [5]: no binding
4 |  |  | binds | GOT1, exogenous in 293T cells (from UniProt P17174 1-413) (enzyme) | 
5 |  |  | binds | USP5, exogenous in 293T cells (from UniProt P45974 1-858) (enzyme) | 
